Measurements reported in PubChem BioAssay AID504793 (Drosophila RNAi Screening Center, 2011)
Purpose: 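Genes required for cells to halt at G2/M after double-strand DNA breaks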 (primary screen). System: Drosophila S2R+ cells. Reagents: long dsRNA against Drosophila genes, about 0.25 µg dsRNA per well. Timing: 4 days of dsRNA, then 4 hours of drug before read-out. Conditions: doxorubicin 0.5 µM for 4 hours to cause double-strand breaks, in cells also given a low, harmless dose of dsRNA against nbs to sensitise the assay. Measurement: 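Mitotic index as the number of phospho-histone H3-positive cells in each well following doxorubicin, given as raw counts without normalisation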. Scale: mitotic cells: higher = more cells in mitosis, weaker G2 arrest. Active means: 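Genes are called active only when high mitotic counts were reproduced with independent dsRNAs and mitosis was checked for delay without damage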. Meaning of the calls: active = confirmed in follow-up tests; inactive = not confirmed.
The deposit covers about 23,000 reagents; this is a random part of those with a known target gene and a result. Over the whole deposit, 62 (0.27%) were called active. 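Calls come from follow-up tests whose scores are not deposited, so confirmed genes may have low counts here; counts are not normalised per plate.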 Raw values are not corrected between plates. A plus sign joins genes that one reagent is predicted to hit. No sequences are given here.

target | dsRNA | mitotic cells, replicate 1 | Outcome
vir-1 | DRSC02501 | 6 | inactive
vir-1 | DRSC02863 | 3 | inactive
vir-1 | DRSC25208 | 5 | inactive
Hmgs | DRSC06866 | 5 | inactive
Hmgs | DRSC28746 | 8 | inactive
Or30a | DRSC03385 | 13 | inactive
CG15347 | DRSC18031 | 11 | inactive
hpRNA:CR32205 | DRSC09890 | 8 | inactive
CG5104 | DRSC11765 | 4 | inactive
dpr2 | DRSC02370 | 5 | inactive
dpr2 | DRSC02371 | 3 | inactive
TwdlN | DRSC25037 | 8 | inactive
CG31245 | DRSC15498 | 11 | inactive
CG42360 | DRSC04224 | 10 | inactive
Cyp6d4 | DRSC16633 | 10 | inactive
Cyp6d4 | DRSC24371 | 9 | inactive
CG17839 | DRSC10290 | 3 | inactive
CG17839 | DRSC10291 | 8 | inactive
CG13870 | DRSC06429 | 4 | inactive
CG4596 | DRSC15608 | 5 | inactive
CG4596 | DRSC25914 | 5 | inactive
CG34140 + Mkp | DRSC26000 | 6 | inactive
CG14259 | DRSC14754 | 12 | inactive
Send2 | DRSC01906 | 2 | inactive
Coq9 | DRSC22913 | 4 | inactive
CG8568 | DRSC20113 | 4 | inactive
CG8568 | DRSC26687 | 7 | inactive
CG7884 | DRSC20065 | 8 | inactive
CG7884 | DRSC25412 | 6 | inactive
beat-VI | DRSC14474 | 10 | inactive
beat-VI | DRSC14727 | 12 | inactive
Zasp52 | DRSC06269 | 11 | inactive
Zasp52 | DRSC07121 | 7 | inactive
CG33098 | DRSC22903 | 17 | inactive
CG8343 | DRSC04905 | 4 | inactive
CG8343 | DRSC27692 | 5 | inactive
CG14221 | DRSC19578 | 16 | inactive
Cad87A | DRSC16161 | 5 | inactive
Cad87A | DRSC29158 | 5 | inactive
CAP | DRSC06743 | 4 | inactive
CAP | DRSC06744 | 6 | inactive
CAP | DRSC06745 | 4 | inactive
CAP | DRSC06846 | 9 | inactive
Spf45 | DRSC03826 | 7 | inactive
Cyp313b1 | DRSC16629 | 6 | inactive
CG34126 | DRSC02726 | 3 | inactive
CG34126 | DRSC22079 | 13 | inactive
Slbp | DRSC16863 | 9 | inactive
CG9300 | DRSC11064 | 11 | inactive
CG31848 | DRSC01309 | 8 | inactive
Cyp6a16Psi (retired record) | DRSC03307 | 3 | inactive
Atg5 | DRSC18112 | 4 | inactive
Grasp65 | DRSC10917 | 3 | inactive
Grasp65 | DRSC28969 | 4 | inactive
CG34458 | DRSC06925 | 1 | inactive
CG15269 | DRSC01942 | 8 | inactive
CG15269 | DRSC24737 | 10 | inactive
osy | DRSC14903 | 13 | inactive
osy | DRSC15979 | 7 | inactive
osy | DRSC15981 | 11 | inactive
CG13043 | DRSC09924 | 3 | inactive
CG13043 | DRSC25440 | 1 | inactive
mora | DRSC16594 | 13 | inactive
GABA-B-R2 | DRSC14134 | 6 | inactive
GABA-B-R2 | DRSC28127 | 1 | inactive
Leash | DRSC15617 | 2 | inactive
Leash | DRSC28712 | 7 | inactive
Cad96Ca | DRSC14220 | 5 | inactive
Cad96Ca | DRSC16693 | 9 | inactive
Hsp68 | DRSC16712 | 12 | inactive
CG5897 | DRSC10555 | 2 | inactive
Tab2 | DRSC07481 | 5 | inactive
CG3987 | DRSC15531 | 8 | inactive
Dfd | DRSC12593 | 7 | inactive
Dfd | DRSC27981 | 8 | inactive
CG9003 | DRSC07317 | 6 | inactive
CG17343 | DRSC02606 | 4 | inactive
CG17343 | DRSC22807 | 5 | inactive
CG17343 | DRSC28706 | 7 | inactive
GckIII | DRSC15729 | 6 | inactive
CG9674 | DRSC11088 | 6 | inactive
CG9674 | DRSC11089 | 5 | inactive
Ccp84Ae | DRSC12590 | 6 | inactive
Ccp84Ae | DRSC26385 | 3 | inactive
Atf-2 | DRSC04130 | 4 | inactive
Atf-2 | DRSC04413 | 5 | inactive
hng3 | DRSC08367 | 10 | inactive
hng3 | DRSC29262 | 2 | inactive
CG13215 | DRSC06337 | 10 | inactive
sqd | DRSC15160 | 4 | inactive
sqd | DRSC17066 | 15 | inactive
sqd | DRSC29779 | 12 | inactive
CG17230 | DRSC15203 | 4 | inactive
CG17230 | DRSC27268 | 9 | inactive
CG2887 | DRSC18235 | 12 | inactive
CG2887 | DRSC24167 | 7 | inactive
Gr10b | DRSC19477 | 17 | inactive
Gr10b | DRSC28702 | 9 | inactive
CG4983 | DRSC02799 | 3 | inactive
CG4983 | DRSC26444 | 8 | inactive
CG33331 + CG33332 | DRSC22928 | 14 | inactive
CG33331 + CG33332 | DRSC29492 | 4 | inactive
Ir20a | DRSC20506 | 4 | inactive
CG9702 | DRSC16540 | 17 | inactive
Slimp | DRSC13656 | 93 | inactive
CG16868 | DRSC06633 | 2 | inactive
CG11007 | DRSC06023 | 6 | inactive
CG11019 (retired record) | DRSC02117 | 7 | inactive
CG11019 (retired record) | DRSC25211 | 10 | inactive
SpdS | DRSC16408 | 5 | inactive
